Measurements: the supplement of paper PMC10849652
Some of the results follow.

Sequences of proteins named here, by UniProt entry; tags and fusion partners are left off. A change or cut given only in a name is not applied to a line headed by its entry.
UniProt P19784, whole entry, looked up: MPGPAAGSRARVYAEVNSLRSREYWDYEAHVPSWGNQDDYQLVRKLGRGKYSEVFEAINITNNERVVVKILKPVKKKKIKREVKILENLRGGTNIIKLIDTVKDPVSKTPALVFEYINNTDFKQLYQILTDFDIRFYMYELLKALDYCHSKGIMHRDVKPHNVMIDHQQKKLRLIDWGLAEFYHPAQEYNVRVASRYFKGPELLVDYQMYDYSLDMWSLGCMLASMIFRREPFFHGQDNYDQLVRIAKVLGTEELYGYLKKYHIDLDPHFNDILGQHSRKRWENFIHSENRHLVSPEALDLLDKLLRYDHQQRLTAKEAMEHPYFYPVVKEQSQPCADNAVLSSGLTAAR
UniProt Q5RI15: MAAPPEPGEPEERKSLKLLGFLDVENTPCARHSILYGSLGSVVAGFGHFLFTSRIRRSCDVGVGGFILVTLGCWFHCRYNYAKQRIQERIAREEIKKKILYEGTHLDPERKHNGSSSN
UniProt P78368: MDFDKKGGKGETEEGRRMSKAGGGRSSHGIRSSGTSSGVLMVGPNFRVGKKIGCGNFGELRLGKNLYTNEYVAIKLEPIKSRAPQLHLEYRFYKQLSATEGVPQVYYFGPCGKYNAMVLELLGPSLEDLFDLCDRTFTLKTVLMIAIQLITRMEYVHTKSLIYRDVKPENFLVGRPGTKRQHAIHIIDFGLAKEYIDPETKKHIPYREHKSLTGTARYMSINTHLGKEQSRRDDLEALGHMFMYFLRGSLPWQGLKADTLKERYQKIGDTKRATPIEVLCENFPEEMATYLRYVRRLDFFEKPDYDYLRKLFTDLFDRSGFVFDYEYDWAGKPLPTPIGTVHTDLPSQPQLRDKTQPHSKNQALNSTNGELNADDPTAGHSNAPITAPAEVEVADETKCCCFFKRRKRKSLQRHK
UniProt P14854, whole entry, looked up: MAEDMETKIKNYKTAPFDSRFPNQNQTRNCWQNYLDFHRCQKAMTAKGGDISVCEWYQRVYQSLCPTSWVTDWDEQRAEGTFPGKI
UniProt P24311, whole entry, looked up: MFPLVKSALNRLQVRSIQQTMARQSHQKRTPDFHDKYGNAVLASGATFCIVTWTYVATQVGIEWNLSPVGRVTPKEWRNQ
UniProt P49747: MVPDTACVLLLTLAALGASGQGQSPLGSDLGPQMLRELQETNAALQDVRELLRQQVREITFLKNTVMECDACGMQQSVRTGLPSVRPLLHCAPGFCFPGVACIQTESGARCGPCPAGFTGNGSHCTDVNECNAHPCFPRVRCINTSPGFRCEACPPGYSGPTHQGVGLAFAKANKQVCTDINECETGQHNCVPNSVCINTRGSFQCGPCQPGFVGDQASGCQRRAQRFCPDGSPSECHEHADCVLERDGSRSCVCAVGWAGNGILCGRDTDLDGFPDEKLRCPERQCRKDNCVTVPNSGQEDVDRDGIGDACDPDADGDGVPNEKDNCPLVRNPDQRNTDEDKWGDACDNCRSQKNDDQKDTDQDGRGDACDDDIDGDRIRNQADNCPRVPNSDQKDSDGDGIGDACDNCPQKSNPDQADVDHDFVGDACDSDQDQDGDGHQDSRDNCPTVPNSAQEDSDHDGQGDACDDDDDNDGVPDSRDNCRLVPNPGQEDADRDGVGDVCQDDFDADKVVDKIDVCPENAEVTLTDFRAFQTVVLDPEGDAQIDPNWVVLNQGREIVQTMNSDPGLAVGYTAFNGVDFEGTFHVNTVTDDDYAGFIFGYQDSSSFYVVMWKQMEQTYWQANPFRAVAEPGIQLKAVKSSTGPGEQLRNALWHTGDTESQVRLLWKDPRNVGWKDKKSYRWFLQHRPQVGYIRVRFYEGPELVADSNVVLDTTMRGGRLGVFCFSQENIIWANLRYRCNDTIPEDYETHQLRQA
UniProt P15954, whole entry, looked up: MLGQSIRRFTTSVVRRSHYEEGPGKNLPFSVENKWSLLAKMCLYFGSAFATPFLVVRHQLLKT
UniProt Q5TA50: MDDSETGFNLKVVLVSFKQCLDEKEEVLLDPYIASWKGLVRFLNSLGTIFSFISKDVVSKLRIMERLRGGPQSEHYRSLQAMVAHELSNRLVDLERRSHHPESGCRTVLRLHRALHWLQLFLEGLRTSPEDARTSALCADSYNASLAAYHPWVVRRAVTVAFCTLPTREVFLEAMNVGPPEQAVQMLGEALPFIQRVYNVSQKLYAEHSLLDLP
UniProt P46109: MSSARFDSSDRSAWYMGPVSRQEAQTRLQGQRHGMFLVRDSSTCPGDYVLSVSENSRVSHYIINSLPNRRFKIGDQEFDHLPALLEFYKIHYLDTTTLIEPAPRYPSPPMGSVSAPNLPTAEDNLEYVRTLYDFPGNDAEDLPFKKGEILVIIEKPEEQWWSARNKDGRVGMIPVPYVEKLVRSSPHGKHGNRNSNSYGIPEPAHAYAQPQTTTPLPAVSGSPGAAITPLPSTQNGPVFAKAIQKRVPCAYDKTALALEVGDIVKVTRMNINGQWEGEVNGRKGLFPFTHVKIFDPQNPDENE
UniProt P41240: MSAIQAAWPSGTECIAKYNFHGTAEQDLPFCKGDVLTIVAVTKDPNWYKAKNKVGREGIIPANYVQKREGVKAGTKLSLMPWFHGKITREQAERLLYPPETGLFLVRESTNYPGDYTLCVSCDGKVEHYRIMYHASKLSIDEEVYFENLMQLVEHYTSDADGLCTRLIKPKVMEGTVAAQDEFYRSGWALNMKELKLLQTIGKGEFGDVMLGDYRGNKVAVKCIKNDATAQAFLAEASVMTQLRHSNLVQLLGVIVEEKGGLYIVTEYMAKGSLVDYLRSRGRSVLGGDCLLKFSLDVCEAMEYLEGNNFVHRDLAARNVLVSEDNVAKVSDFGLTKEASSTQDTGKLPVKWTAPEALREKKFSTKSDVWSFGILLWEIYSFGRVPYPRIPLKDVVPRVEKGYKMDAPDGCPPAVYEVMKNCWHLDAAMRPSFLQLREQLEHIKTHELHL
UniProt P52943: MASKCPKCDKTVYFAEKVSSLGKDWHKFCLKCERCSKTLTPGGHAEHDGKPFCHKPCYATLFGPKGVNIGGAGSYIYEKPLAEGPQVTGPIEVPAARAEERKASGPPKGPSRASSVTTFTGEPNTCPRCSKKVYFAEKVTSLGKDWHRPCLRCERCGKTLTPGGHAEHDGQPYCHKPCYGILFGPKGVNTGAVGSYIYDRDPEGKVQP
UniProt Q10570: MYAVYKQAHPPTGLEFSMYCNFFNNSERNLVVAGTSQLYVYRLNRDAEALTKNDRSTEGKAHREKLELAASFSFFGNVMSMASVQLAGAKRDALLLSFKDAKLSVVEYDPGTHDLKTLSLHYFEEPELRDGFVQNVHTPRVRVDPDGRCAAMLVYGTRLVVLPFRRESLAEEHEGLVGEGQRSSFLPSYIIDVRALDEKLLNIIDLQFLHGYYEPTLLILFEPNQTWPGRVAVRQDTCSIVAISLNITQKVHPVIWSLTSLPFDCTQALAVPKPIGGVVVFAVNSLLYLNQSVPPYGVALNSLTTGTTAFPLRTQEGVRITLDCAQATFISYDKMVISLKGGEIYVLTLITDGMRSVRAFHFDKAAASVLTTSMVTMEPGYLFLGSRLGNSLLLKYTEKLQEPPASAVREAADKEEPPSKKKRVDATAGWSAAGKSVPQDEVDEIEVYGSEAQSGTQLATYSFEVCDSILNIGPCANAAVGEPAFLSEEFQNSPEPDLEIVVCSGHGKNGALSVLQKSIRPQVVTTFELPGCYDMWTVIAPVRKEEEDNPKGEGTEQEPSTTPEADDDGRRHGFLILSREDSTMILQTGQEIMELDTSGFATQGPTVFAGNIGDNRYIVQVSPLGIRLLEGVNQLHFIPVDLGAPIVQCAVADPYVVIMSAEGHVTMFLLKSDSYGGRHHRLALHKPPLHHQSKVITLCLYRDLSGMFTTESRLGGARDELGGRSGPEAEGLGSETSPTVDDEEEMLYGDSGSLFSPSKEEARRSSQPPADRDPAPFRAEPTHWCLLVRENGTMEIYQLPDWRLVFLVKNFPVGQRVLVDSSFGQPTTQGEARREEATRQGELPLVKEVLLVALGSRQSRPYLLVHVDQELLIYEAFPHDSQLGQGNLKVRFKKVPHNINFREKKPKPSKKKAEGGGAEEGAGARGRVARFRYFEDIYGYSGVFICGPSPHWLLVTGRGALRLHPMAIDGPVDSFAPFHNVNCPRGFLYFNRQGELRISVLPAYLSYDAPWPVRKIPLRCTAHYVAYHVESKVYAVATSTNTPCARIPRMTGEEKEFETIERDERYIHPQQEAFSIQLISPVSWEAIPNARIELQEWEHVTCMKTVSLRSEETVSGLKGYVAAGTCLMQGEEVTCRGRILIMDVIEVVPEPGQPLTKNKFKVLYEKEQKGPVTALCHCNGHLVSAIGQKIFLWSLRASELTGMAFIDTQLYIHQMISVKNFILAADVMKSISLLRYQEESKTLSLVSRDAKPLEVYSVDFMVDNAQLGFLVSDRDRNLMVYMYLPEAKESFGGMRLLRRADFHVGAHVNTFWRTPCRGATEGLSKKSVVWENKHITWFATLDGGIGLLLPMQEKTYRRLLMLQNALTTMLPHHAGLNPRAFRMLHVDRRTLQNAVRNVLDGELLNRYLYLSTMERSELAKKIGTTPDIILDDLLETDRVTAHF
UniProt Q9UNS2: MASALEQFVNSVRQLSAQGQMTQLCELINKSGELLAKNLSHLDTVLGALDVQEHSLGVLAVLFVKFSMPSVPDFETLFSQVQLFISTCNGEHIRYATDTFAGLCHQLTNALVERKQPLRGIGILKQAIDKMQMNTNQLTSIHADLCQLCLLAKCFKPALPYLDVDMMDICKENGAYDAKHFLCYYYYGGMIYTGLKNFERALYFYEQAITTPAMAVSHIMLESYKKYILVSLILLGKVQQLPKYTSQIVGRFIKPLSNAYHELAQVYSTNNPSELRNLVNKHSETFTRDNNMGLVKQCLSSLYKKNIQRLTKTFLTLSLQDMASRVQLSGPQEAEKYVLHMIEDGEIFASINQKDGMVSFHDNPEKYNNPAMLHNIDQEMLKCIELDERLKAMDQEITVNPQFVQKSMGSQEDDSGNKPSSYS
UniProt Q9HCP0: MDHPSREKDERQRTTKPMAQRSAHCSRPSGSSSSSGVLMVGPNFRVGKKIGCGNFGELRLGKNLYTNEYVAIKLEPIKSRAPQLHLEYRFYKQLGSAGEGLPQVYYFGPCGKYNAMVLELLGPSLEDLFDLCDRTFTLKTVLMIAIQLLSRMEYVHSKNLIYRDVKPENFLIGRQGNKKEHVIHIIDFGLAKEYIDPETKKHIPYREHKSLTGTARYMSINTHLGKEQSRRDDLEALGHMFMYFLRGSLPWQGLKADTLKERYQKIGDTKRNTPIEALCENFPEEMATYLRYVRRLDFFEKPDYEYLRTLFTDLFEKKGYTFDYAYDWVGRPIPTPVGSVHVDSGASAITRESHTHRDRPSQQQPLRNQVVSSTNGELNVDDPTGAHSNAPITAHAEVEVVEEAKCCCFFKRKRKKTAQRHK
UniProt O95639, whole entry, looked up: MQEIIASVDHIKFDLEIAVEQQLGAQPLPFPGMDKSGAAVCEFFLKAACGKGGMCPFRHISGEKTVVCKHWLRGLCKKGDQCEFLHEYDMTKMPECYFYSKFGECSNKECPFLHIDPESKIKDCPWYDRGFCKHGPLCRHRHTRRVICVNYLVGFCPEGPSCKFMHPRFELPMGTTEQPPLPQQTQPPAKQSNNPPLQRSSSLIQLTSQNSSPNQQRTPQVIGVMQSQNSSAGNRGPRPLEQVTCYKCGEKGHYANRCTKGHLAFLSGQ
UniProt Q14894: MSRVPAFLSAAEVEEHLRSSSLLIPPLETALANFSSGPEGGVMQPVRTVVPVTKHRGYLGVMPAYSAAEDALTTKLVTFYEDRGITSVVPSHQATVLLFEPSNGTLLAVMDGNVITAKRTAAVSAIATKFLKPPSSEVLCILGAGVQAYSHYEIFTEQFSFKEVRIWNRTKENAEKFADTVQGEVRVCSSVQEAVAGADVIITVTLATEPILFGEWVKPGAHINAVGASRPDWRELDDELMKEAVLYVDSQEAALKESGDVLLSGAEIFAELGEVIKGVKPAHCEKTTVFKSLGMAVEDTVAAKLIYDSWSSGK
UniProt Q14194, whole entry, looked up: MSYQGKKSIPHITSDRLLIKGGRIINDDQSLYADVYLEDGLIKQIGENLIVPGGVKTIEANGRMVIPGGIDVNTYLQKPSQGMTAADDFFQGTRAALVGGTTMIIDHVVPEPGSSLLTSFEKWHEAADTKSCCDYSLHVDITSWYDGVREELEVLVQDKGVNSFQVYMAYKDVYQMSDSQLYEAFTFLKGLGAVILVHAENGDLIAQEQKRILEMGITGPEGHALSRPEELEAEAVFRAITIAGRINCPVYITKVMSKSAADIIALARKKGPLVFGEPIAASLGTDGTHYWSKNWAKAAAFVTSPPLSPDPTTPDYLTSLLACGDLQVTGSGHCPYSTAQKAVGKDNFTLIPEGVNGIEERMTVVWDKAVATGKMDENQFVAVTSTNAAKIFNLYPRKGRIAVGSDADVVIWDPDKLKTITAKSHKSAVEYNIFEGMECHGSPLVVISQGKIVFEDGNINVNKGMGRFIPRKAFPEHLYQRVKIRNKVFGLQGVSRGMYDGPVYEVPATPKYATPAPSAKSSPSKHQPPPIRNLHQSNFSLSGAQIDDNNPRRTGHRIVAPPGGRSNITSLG

Experiments:
Experiment in all cases: log2 fold change, soluble protein after heating vs DMSO (PISA); higher = thermal stabilisation; K562 cells, 10 uM, 30 min; active = over 0.2 and 3.5 SD of the protein, either way, in both replicates (recomputed)
[1] = compound: CS(=O)(=O)c1ccc(-c2cnc(N)c(C(=O)Nc3ccccc3)n2)cc1
In short: (§1)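 Soluble protein was defined as the supernatant after 21,000xg for 90 min. It came from K562 cells at 2×10^6 cells/mL given 10 μM compound for 30 min, heated in aliquots for 3 min across 48°C-58°C, pooled, and extracted in PBS with 0.5% NP-40 at 4°C, and was quantified by TMTpro 16plex LC-MS/MS with equalised channel sums. Thermal stability against control samples, from duplicates, is reported as log2 fold change.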

crizotinib = compound: C[C@@H](Oc1cc(-c2cnn(C3CCNCC3)c2)cnc1N)c1c(Cl)ccc(F)c1Cl [crizotinib]
In short: as §1

[2] = compound: C[C@@H]1COCCN1C2=NC(=NC(=C2)C3(CC3)S(=O)(=O)C)C4=C5C=CNC5=CC=C4
In short: as §1

[3] = compound: C[C@H](C1=CC=C(C=C1)C(=O)NC2=C3C=CNC3=NC=C2)N
In short: as §1

gandotinib = compound: Cc1cc(Nc2cc(CN3CCOCC3)c3nc(C)c(Cc4ccc(Cl)cc4F)n3n2)n[nH]1 [gandotinib]
In short: as §1

[4] = compound: Cc1cc(SCc2sc(-c3ccc(C(F)(F)F)cc3)nc2C)ccc1OCC(=O)O
In short: as §1

doramapimod = compound: Cc1ccc(-n2nc(C(C)(C)C)cc2NC(=O)Nc2ccc(OCCN3CCOCC3)c3ccccc23)cc1 [doramapimod]
In short: as §1

ispinesib = compound: Cc1ccc(C(=O)N(CCCN)[C@@H](c2nc3cc(Cl)ccc3c(=O)n2Cc2ccccc2)C(C)C)cc1 [ispinesib]
In short: as §1

bafetinib = compound: Cc1ccc(NC(=O)c2ccc(CN3CC[C@H](N(C)C)C3)c(C(F)(F)F)c2)cc1Nc1nccc(-c2cncnc2)n1 [bafetinib]
In short: as §1

[5] = compound: Cc1cccc(CC(=O)N2CCc3c2ccc(-c2cn(C)c4ncnc(N)c24)c3F)n1
In short: as §1

nilotinib = compound: Cc1cn(-c2cc(NC(=O)c3ccc(C)c(Nc4nccc(-c5cccnc5)n4)c3)cc(C(F)(F)F)c2)cn1 [nilotinib]
In short: as §1

[6] = compound: Cc1nc(Nc2n[nH]c3c2CN(C(=O)N[C@H](CN(C)C)c2ccccc2)C3(C)C)c2sccc2n1
In short: as §1

dasatinib = compound: Cc1nc(Nc2ncc(C(=O)Nc3c(C)cccc3Cl)s2)cc(N2CCN(CCO)CC2)n1 [dasatinib]
In short: as §1

[7] = compound: Cc1ncc(-c2ccnc(Nc3ccc(S(C)(=O)=O)cc3)n2)n1C(C)C
In short: as §1

[8] = compound: Cn1cc(-c2ccc3c(c2)CCN3C(=O)Cc2cccc(C(F)(F)F)c2)c2c(N)ncnc21
In short: as §1

[9] = compound: Cn1cc(-c2ccc3nnc(C(F)(F)c4ccc5ncccc5c4)n3n2)cn1
In short: as §1

tipifarnib = compound: Cn1cncc1[C@@](N)(c1ccc(Cl)cc1)c1ccc2c(c1)c(-c1cccc(Cl)c1)cc(=O)n2C [tipifarnib]
In short: as §1

mubritinib = compound: FC(F)(F)c1ccc(/C=C/c2nc(COc3ccc(CCCCn4ccnn4)cc3)co2)cc1 [mubritinib]
In short: as §1

tozasertib = compound: Cc1cc(Nc2cc(N3CCN(C)CC3)nc(Sc3ccc(NC(=O)C4CC4)cc3)n2)n[nH]1 [tozasertib]
In short: as §1

duvelisib = compound: C[C@H](Nc1ncnc2nc[nH]c12)c1cc2cccc(Cl)c2c(=O)n1-c1ccccc1 [duvelisib]
In short: as §1

Measured: log2 fold change

CSNK2A2 (UniProt P19784)
inactive: [1] 0.068 | crizotinib -0.132 | [2] 0.039 | gandotinib -0.097 | [4] 0.013 | doramapimod 0.007 | ispinesib 0.084 | bafetinib -0.042 | [5] -0.008 | nilotinib -0.009 | [6] 0.016 | dasatinib -0.056 | [7] -0.019 | [8] -0.009 | [9] 0.038 | tipifarnib -0.033 | mubritinib -0.019
active: [3] -0.234

COX20 isoform 2 (UniProt Q5RI15)
inactive: [1] -0.043 | crizotinib 0.063 | [2] -0.098 | [3] 0.01 | gandotinib -0.385 | [4] -0.001 | doramapimod -0.001 | ispinesib -0.017 | bafetinib -0.072 | [5] -0.241 | nilotinib 0.017 | [6] 0.012 | dasatinib 0.049 | [7] 0.009 | [8] -0.044 | [9] 0.023 | tipifarnib -0.069 | mubritinib -0.092

CSNK1G2 (UniProt P78368)
inactive: [1] 0.121 | crizotinib -0.203 | [2] -0.129 | gandotinib 0.113 | tozasertib 0.116 | doramapimod 0.07 | [5] -0.058 | nilotinib 0.014 | [6] -0.023 | [7] 0.062 | mubritinib -0.006

COX6B1 (UniProt P14854)
inactive: [1] -0.001 | crizotinib 0.184 | [2] 0.195 | [3] 0 | gandotinib -0.027 | [4] 0 | doramapimod -0.06 | ispinesib 0.226 | bafetinib -0.081 | [5] -0.023 | nilotinib -0.02 | [6] -0.01 | dasatinib 0.019 | [7] -0.027 | [8] 0.228 | tipifarnib -0.044 | mubritinib 0.054
active: [9] 0.377

COX7B (UniProt P24311)
inactive: [1] -0.026 | crizotinib 0.013 | [2] 0.02 | [3] -0.171 | gandotinib 0.05 | [4] 0.014 | doramapimod -0.067 | bafetinib 0.109 | [5] 0.037 | nilotinib 0.053 | [6] 0.037 | dasatinib 0.074 | [7] 0.01 | [8] -0.011 | tipifarnib -0.024 | mubritinib 0.026

COMP (UniProt P49747)
inactive: [1] -0.093 | crizotinib 0.137 | [3] 0.17 | duvelisib -0.042 | gandotinib -0.191 | tozasertib 0.041 | [4] -0.28 | doramapimod 0 | ispinesib 0.033 | bafetinib -0.092 | [5] 0.004 | dasatinib 0.039 | [8] 0.219 | [9] -0.081 | tipifarnib 0.075 | mubritinib -0.239

COX7C (UniProt P15954)
inactive: [1] 0.025 | crizotinib 0.147 | [2] 0.028 | gandotinib 0.043 | [4] -0.114 | doramapimod -0.072 | ispinesib -0.096 | bafetinib -0.066 | [5] -0.077 | nilotinib 0.148 | [6] -0.041 | dasatinib 0.073 | [7] -0.158 | [9] 0.366 | tipifarnib 0.105 | mubritinib 0.112

3 successive entries from above, for reference:
CSNK1G2 (UniProt P78368)
inactive: [1] 0.121 | crizotinib -0.203 | [2] -0.129 | gandotinib 0.113 | tozasertib 0.116 | doramapimod 0.07 | [5] -0.058 | nilotinib 0.014 | [6] -0.023 | [7] 0.062 | mubritinib -0.006

COX6B1 (UniProt P14854)
inactive: [1] -0.001 | crizotinib 0.184 | [2] 0.195 | [3] 0 | gandotinib -0.027 | [4] 0 | doramapimod -0.06 | ispinesib 0.226 | bafetinib -0.081 | [5] -0.023 | nilotinib -0.02 | [6] -0.01 | dasatinib 0.019 | [7] -0.027 | [8] 0.228 | tipifarnib -0.044 | mubritinib 0.054
active: [9] 0.377

COX7B (UniProt P24311)
inactive: [1] -0.026 | crizotinib 0.013 | [2] 0.02 | [3] -0.171 | gandotinib 0.05 | [4] 0.014 | doramapimod -0.067 | bafetinib 0.109 | [5] 0.037 | nilotinib 0.053 | [6] 0.037 | dasatinib 0.074 | [7] 0.01 | [8] -0.011 | tipifarnib -0.024 | mubritinib 0.026

Next part.

CPTP (UniProt Q5TA50)
inactive: [1] 0.167 | crizotinib -0.093 | doramapimod 0 | ispinesib 0.203 | [9] -0.01 | mubritinib 0.082

CRKL (UniProt P46109)
inactive: [1] 0.037 | [2] 0.008 | [3] -0.045 | gandotinib -0.027 | [4] 0.012 | doramapimod -0.024 | ispinesib 0.046 | [5] 0.013 | [6] -0.054 | [7] 0.023 | [8] 0.004 | [9] 0.028 | tipifarnib 0.024 | mubritinib 0.049
active: crizotinib -1.34 | bafetinib -1.41 | nilotinib -1.34 | dasatinib -2.17

CSK (UniProt P41240)
inactive: [1] 0.082 | crizotinib -0.033 | [2] 0.112 | [3] -0.004 | gandotinib -0.018 | [4] 0.046 | doramapimod 0.003 | ispinesib -0.028 | bafetinib 0.088 | [5] 0.019 | nilotinib 0.126 | [6] -0.001 | dasatinib 0.137 | [7] 0.017 | [8] 0.019 | [9] -0.031 | tipifarnib -0.129 | mubritinib 0.107

CRIP2 isoform 2 (UniProt P52943)
inactive: [1] -0.014 | crizotinib 0.011 | [2] -0.101 | [3] 0.058 | tozasertib -0.095 | doramapimod -0.255 | bafetinib 0.003 | nilotinib -0.051 | [6] 0.037 | [7] 0.047 | [8] -0.026 | tipifarnib -0.01

CPSF1 (UniProt Q10570)
inactive: [1] -0.015 | crizotinib -0.021 | [2] -0.185 | [3] 0.048 | gandotinib -0.068 | [4] 0.161 | doramapimod 0.09 | ispinesib 0.036 | bafetinib 0.026 | [5] -0.007 | nilotinib 0.065 | [6] -0.002 | dasatinib -0.037 | [7] -0.014 | [8] -0.077 | [9] -0.14 | tipifarnib 0.026 | mubritinib -0.007

COPS3 isoform 2 (UniProt Q9UNS2)
inactive: [1] 0.054 | crizotinib 0.046 | [2] 0.116 | gandotinib -0.084 | doramapimod 0.028 | ispinesib -0.371 | bafetinib -0.19 | [5] -0.295 | nilotinib -0.041 | [6] 0.227 | [7] -0.194 | [9] 0.418 | tipifarnib 0.029 | mubritinib 0.138

CSNK1G1 (UniProt Q9HCP0)
inactive: [1] 0.038 | [2] 0.063 | duvelisib -0.174 | [4] 0.024 | ispinesib -0.39 | bafetinib 0.038 | nilotinib 0.092 | [6] -0.455 | dasatinib -0.023 | [7] -0.021 | [9] 0.018 | mubritinib -0.037

CPSF4 (UniProt O95639)
inactive: gandotinib -0.059 | ispinesib -0.05 | bafetinib -0.24 | [5] -0.076 | nilotinib -0.056 | [6] -0.292 | [7] -0.202 | [9] -0.151 | mubritinib -0.261

CRYM (UniProt Q14894)
inactive: [2] 0.033 | [3] -0.133 | duvelisib 0.034 | gandotinib -0.088 | tozasertib -0.142 | [4] -0.104 | [5] 0.067 | dasatinib -0.393 | [8] 0.236

CRMP1 isoform 2 (UniProt Q14194)
inactive: [1] 0.024 | [3] 0.08 | gandotinib -0.132 | [4] -0.003 | bafetinib -0.024 | [5] -0.035 | nilotinib -0.012 | [6] 0.221 | dasatinib -0.074 | [7] -0.138 | [8] 0.182
